Measured values: paper PMC11003053
These are yes or no findings as the source states them, for the method shown. Binding seen in cells or lysates may run through a third protein. Some entries that bind do so weakly or less than the wild type.

Chains of the proteins cited; added tags and fusions are not shown. Lines headed by an entry give the natural chain unless they say otherwise; changes in a name come on top. Residues count along the entry.
UniProt O00241, residues 30-398: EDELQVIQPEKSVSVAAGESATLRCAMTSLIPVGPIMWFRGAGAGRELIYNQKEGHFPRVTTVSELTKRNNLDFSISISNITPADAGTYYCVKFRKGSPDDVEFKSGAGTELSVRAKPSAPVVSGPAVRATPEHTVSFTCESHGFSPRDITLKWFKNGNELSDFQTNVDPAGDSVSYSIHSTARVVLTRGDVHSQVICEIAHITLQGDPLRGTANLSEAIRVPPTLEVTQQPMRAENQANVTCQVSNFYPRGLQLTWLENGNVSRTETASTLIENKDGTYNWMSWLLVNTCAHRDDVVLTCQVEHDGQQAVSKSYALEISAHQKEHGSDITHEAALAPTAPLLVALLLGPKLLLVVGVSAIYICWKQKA
UniProt O43914, residues 22-113: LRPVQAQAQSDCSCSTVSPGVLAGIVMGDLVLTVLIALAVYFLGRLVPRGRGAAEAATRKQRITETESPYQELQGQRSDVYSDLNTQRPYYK

Biological target: FLAG-tagged Signal Regulatory Protein Beta 1 (SIRPB1^MUT, sgRNA-resistant synonymous mutant) (UniProt O00241)
Assay: co-IP; macrophage lysate (IP lysate with protease inhibitors) incubated overnight at 4 °C with FLAG antibody or mouse IgG, protein A/G beads 6 h at 4 °C, eluted with 1x loading buffer

binding: binds
Substance: DAP12 adaptor protein (from UniProt O43914 22-113)
